Source: the supplement of paper PMC5836539
± gives the standard deviation of the averaged measurements. Most values lie within the scatter of the assay; repeated measurements hardly agree.

Protein sequences, listed by entry. Tags and fused reporters are not part of them. Lines headed by an entry give the natural chain unless they say otherwise; changes in a name come on top.
UniProt O60841: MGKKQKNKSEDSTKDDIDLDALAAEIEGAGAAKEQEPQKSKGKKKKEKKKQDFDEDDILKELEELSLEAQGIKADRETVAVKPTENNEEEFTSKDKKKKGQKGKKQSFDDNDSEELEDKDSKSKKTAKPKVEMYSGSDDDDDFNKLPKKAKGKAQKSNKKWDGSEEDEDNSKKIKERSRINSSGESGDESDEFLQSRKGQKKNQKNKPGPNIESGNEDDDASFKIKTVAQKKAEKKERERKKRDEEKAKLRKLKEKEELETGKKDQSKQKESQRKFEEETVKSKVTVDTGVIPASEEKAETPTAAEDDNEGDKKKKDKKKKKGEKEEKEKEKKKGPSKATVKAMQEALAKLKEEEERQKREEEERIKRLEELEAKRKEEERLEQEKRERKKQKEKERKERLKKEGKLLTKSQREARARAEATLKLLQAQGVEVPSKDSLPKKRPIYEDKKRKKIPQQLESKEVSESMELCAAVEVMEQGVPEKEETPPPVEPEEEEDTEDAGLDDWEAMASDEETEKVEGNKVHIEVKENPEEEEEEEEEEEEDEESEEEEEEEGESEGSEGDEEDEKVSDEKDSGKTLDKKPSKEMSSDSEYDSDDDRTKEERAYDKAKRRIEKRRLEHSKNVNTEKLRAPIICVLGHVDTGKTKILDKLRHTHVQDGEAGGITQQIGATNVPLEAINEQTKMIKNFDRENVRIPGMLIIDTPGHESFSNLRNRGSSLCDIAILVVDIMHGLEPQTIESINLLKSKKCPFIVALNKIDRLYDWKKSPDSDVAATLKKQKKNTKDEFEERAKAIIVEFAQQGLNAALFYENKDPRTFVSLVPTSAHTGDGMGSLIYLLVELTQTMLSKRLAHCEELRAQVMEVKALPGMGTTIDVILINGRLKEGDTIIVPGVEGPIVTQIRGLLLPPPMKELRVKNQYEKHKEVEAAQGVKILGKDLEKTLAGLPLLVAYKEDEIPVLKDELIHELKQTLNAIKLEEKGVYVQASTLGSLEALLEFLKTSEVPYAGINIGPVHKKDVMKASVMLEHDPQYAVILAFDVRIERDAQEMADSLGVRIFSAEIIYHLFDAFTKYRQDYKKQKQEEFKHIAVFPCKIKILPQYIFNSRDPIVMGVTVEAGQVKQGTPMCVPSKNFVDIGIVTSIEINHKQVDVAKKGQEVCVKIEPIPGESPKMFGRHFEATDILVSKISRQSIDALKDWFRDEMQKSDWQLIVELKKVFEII
UniProt Q6ZRV2: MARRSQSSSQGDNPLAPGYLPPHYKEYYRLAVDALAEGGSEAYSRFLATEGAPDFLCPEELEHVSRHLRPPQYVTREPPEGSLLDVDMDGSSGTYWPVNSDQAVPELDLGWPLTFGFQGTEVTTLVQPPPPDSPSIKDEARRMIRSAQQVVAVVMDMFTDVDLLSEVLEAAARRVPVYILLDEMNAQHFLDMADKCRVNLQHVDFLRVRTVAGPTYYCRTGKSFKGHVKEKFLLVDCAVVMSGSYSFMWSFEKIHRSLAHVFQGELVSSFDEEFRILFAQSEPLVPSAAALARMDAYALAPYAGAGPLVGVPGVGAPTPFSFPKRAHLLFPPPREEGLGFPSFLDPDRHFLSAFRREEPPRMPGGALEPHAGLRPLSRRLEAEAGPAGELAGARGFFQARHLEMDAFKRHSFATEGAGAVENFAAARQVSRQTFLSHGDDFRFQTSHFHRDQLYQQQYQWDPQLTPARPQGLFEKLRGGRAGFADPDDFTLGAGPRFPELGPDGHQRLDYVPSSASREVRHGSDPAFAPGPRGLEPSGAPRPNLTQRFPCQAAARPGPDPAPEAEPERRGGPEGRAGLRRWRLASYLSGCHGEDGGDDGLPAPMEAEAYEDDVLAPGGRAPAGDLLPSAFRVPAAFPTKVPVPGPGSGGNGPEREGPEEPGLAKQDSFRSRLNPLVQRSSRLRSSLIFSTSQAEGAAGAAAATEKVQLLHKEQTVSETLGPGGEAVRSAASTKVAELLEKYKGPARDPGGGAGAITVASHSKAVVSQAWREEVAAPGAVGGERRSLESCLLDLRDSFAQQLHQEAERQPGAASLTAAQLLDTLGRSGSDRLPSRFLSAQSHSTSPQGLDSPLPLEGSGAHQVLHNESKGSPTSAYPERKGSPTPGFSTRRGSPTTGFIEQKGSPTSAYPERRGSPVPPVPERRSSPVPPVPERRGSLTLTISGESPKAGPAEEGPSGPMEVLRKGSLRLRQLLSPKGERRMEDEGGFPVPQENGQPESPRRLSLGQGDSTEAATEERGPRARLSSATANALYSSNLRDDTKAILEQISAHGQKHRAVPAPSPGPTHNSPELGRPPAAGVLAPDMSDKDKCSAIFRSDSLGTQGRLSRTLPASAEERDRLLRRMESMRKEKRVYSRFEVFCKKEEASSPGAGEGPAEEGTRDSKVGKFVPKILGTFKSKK
UniProt Q7Z309: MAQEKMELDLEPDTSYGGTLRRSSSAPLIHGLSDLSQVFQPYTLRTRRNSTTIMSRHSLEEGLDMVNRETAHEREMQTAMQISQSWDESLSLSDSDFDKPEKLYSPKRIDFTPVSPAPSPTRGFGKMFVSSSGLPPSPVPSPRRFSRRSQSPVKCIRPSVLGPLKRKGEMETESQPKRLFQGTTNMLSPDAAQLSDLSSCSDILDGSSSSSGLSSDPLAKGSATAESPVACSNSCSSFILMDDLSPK
UniProt Q6Y7W6: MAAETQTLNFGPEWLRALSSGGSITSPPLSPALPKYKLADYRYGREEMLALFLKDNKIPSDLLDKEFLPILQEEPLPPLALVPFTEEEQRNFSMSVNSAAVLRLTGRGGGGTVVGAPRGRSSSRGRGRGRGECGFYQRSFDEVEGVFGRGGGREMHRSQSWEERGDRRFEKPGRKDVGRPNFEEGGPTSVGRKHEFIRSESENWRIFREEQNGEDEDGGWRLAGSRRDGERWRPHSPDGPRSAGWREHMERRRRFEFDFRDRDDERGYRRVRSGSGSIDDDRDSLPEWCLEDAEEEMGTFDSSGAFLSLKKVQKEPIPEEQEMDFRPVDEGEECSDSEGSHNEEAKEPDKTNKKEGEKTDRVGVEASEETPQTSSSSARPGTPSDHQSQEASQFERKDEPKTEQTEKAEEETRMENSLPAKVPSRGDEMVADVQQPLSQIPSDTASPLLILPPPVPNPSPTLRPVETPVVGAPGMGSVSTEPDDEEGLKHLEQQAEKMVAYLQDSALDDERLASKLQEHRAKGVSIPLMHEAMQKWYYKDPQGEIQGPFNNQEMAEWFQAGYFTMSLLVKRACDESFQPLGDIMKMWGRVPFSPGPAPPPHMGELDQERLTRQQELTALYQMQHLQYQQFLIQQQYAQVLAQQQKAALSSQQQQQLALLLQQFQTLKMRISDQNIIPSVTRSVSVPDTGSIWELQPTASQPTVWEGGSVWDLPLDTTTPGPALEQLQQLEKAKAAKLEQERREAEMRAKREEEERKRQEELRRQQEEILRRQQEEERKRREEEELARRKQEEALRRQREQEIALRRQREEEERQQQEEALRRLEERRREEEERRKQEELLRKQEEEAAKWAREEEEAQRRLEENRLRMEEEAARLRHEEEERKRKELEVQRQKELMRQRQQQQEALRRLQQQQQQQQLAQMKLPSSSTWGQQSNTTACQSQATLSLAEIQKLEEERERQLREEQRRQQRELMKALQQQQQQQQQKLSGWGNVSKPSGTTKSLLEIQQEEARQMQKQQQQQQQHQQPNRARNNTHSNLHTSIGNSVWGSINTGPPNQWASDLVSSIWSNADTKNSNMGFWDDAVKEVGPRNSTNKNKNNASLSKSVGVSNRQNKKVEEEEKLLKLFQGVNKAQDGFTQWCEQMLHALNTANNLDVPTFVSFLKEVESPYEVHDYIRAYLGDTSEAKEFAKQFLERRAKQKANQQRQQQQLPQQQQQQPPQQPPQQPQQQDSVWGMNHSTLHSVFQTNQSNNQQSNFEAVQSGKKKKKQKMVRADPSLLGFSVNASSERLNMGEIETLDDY
UniProt Q9Y2X7: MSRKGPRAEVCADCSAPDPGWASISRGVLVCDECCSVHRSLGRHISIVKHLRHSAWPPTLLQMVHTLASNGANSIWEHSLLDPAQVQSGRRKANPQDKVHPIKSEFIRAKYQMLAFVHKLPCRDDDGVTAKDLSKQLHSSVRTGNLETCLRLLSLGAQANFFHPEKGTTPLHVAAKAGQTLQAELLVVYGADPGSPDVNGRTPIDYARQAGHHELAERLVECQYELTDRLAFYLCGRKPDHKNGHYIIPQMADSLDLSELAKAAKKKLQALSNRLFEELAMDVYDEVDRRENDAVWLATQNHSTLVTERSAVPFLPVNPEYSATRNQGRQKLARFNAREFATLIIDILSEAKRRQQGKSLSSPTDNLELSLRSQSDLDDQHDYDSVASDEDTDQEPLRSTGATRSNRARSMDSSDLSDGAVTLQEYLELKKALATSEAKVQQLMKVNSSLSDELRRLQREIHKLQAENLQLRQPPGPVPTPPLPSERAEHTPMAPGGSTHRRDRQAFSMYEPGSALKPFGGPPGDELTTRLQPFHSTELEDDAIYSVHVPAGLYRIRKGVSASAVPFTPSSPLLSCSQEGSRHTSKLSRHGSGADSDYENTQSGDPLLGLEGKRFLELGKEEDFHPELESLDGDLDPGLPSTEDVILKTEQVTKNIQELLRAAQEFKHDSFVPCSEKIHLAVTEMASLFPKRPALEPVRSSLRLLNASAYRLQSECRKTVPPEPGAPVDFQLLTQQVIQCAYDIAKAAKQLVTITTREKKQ
UniProt P36915, whole entry, looked up: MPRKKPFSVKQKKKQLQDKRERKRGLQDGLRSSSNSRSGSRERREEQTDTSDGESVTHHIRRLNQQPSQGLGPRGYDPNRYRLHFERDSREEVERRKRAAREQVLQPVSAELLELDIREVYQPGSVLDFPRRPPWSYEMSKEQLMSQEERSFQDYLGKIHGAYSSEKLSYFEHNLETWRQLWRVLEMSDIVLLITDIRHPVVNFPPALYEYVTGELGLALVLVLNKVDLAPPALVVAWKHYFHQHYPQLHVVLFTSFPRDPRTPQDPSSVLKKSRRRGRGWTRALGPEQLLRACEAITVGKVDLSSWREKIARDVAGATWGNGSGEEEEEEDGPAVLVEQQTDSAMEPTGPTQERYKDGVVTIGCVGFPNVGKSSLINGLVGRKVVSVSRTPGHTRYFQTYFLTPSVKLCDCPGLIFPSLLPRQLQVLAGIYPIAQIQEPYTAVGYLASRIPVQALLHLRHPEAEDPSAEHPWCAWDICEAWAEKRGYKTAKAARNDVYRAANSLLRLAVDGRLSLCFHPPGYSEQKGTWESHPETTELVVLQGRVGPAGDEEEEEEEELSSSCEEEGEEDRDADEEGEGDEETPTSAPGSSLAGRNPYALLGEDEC
UniProt Q9NQX3: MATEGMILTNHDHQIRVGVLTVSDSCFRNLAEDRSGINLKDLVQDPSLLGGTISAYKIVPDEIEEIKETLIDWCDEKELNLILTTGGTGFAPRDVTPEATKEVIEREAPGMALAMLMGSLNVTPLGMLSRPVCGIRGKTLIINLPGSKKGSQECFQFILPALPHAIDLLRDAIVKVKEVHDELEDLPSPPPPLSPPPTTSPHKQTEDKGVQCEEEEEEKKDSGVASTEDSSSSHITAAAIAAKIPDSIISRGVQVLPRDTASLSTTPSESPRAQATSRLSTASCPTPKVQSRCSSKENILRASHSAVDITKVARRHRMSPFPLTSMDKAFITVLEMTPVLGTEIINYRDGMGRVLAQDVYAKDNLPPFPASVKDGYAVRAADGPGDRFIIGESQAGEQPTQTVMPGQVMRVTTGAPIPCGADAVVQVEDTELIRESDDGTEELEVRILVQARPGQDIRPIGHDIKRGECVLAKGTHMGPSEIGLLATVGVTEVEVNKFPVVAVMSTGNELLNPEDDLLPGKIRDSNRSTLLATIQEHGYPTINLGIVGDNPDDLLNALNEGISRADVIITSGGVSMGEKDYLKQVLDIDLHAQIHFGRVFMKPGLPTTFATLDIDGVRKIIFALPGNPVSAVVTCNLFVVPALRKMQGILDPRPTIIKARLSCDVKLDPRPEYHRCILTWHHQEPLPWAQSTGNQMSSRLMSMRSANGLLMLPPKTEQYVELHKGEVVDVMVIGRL
UniProt P35269, whole entry, looked up: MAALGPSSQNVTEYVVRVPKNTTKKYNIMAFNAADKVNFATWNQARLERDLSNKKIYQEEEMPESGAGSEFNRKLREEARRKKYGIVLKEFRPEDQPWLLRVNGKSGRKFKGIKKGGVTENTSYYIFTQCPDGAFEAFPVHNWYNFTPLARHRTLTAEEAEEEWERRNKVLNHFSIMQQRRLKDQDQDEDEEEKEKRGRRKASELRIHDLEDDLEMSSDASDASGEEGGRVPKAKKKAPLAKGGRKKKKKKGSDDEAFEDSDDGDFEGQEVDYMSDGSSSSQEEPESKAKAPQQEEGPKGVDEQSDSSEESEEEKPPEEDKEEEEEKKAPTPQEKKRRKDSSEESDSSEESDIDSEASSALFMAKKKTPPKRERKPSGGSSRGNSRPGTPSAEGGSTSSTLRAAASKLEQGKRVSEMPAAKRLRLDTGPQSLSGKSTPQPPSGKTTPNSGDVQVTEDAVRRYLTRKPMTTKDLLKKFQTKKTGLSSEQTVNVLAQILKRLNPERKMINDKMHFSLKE

Compound: CC[C@@H](C)Nc1cc(C(=O)N[C@H]2C[C@H]3CC[C@@H](C2)N3c2ccc(C(=O)C3CC3)cn2)c(C)cc1C(N)=O [XL888]
Assay: phosphopeptide melting temperature shift (XL888 minus DMSO); higher = stabilised by drug treatment
Conditions: 100 µM; treatment time 2 h; layout: intact cells; SK-Mel 28
Procedure: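 Phospho-TPP in intact SK-Mel 28 cells treated with 100 uM XL888 or DMSO for 2 h, heated at 10 temperatures (37-67 C) for 3 min, soluble fraction TMT10plex-labelled and TiO2 phospho-enriched. Melting curves were fitted per phosphopeptide; the value is the melting point difference (drug minus vehicle) in each of two biological replicates.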

EIF3B phosphosite_164 (phosphosite position: 164) (UniProt P55884)
phosphopeptide melting temperature shift: 0.144 °C

EIF4EBP1 phosphosite_46 (phosphosite position: 46) (UniProt Q13541)
phosphopeptide melting temperature shift: -1.47 °C

EIF5B phosphosite_107 (phosphosite position: 107) (UniProt O60841)
phosphopeptide melting temperature shift: 0.488 ± 0.47 °C

EIF5B phosphosite_135 (phosphosite position: 135) (UniProt O60841)
phosphopeptide melting temperature shift: 2.04 ± 2.4 °C

EIF5B phosphosite_137 (phosphosite position: 137) (UniProt O60841)
phosphopeptide melting temperature shift: 0.297 ± 0.16 °C

EIF6 phosphosite_239 (phosphosite position: 239) (UniProt P56537)
phosphopeptide melting temperature shift: -1.11 ± 2.4 °C

ELMSAN1 phosphosite_461 (phosphosite position: 461) (UniProt Q6PJG2)
phosphopeptide melting temperature shift: -0.0293 ± 0.2 °C

EML4 phosphosite_146 (phosphosite position: 146) (UniProt Q9HC35)
phosphopeptide melting temperature shift: 2.15 ± 2.4 °C

EP300 phosphosite_1038 (phosphosite position: 1038) (UniProt Q09472)
phosphopeptide melting temperature shift: -1.68 °C

EPS15L1 phosphosite_241 (phosphosite position: 241) (UniProt Q9UBC2)
phosphopeptide melting temperature shift: 2.59 ± 1.9 °C

EPS15L1 phosphosite_255 (phosphosite position: 255) (UniProt Q9UBC2)
phosphopeptide melting temperature shift: 0.158 ± 2.4 °C

ERCC5 phosphosite_156 (phosphosite position: 156) (UniProt P28715)
phosphopeptide melting temperature shift: 1.69 °C

ERCC5 phosphosite_157 (phosphosite position: 157) (UniProt P28715)
phosphopeptide melting temperature shift: 1.69 °C

ETV3 phosphosite_159 (phosphosite position: 159) (UniProt P41162)
phosphopeptide melting temperature shift: 0.124 °C

FAM53C phosphosite_232 (phosphosite position: 232) (UniProt Q9NYF3)
phosphopeptide melting temperature shift: -0.773 ± 1.5 °C

FAM53C phosphosite_234 (phosphosite position: 234) (UniProt Q9NYF3)
phosphopeptide melting temperature shift: -0.773 ± 1.5 °C

FAM83H phosphosite_892 (phosphosite position: 892) (UniProt Q6ZRV2)
phosphopeptide melting temperature shift: -2.37 ± 3.4 °C

FAM122A phosphosite_76 (phosphosite position: 76) (UniProt Q96E09)
phosphopeptide melting temperature shift: 3.47 °C

FAM122A phosphosite_143 (phosphosite position: 143) (UniProt Q96E09)
phosphopeptide melting temperature shift: 1.84 ± 1.2 °C

FAM122B phosphosite_115 (phosphosite position: 115) (UniProt Q7Z309)
phosphopeptide melting temperature shift: 0.313 ± 2.1 °C

FAM122B phosphosite_119 (phosphosite position: 119) (UniProt Q7Z309)
phosphopeptide melting temperature shift: -0.632 ± 1.1 °C

FARP1 phosphosite_433 (phosphosite position: 433) (UniProt Q9Y4F1)
phosphopeptide melting temperature shift: 1.63 ± 0.58 °C

FASN phosphosite_207 (phosphosite position: 207) (UniProt P49327)
phosphopeptide melting temperature shift: 0.302 ± 0.3 °C

FBXO6 phosphosite_284 (phosphosite position: 284) (UniProt Q9NRD1)
phosphopeptide melting temperature shift: 0.586 ± 0.42 °C

FBXO42 phosphosite_488 (phosphosite position: 488) (UniProt Q6P3S6)
phosphopeptide melting temperature shift: 1.29 ± 0.61 °C

FGD4 phosphosite_702 (phosphosite position: 702) (UniProt Q96M96)
phosphopeptide melting temperature shift: -0.182 ± 0.27 °C

FKBP3 phosphosite_36 (phosphosite position: 36) (UniProt Q00688)
phosphopeptide melting temperature shift: 0.436 ± 0.77 °C

FXR2 phosphosite_601 (phosphosite position: 601) (UniProt P51116)
phosphopeptide melting temperature shift: 2.75 ± 1.3 °C

FXR2 phosphosite_603 (phosphosite position: 603) (UniProt P51116)
phosphopeptide melting temperature shift: 4.54 °C

GAB1 phosphosite_551 (phosphosite position: 551) (UniProt Q13480)
phosphopeptide melting temperature shift: 0.165 °C

GAPDH phosphosite_83 (phosphosite position: 83) (UniProt P04406)
phosphopeptide melting temperature shift: -1.79 ± 0.38 °C

GIGYF2 phosphosite_160 (phosphosite position: 160) (UniProt Q6Y7W6)
phosphopeptide melting temperature shift: 1.11 ± 0.63 °C

GIGYF2 phosphosite_335 (phosphosite position: 335) (UniProt Q6Y7W6)
phosphopeptide melting temperature shift: -0.828 °C

GIGYF2 phosphosite_593 (phosphosite position: 593) (UniProt Q6Y7W6)
phosphopeptide melting temperature shift: 0.837 ± 0.91 °C

GIT1 phosphosite_388 (phosphosite position: 388) (UniProt Q9Y2X7)
phosphopeptide melting temperature shift: 0.624 ± 0.44 °C

GIT1 phosphosite_596 (phosphosite position: 596) (UniProt Q9Y2X7)
phosphopeptide melting temperature shift: 0.305 ± 0.1 °C

GLCCI1 phosphosite_172 (phosphosite position: 172) (UniProt Q86VQ1)
phosphopeptide melting temperature shift: 3.23 °C

GLCCI1 phosphosite_303 (phosphosite position: 303) (UniProt Q86VQ1)
phosphopeptide melting temperature shift: -1.78 °C

GNL1 phosphosite_48 (phosphosite position: 48) (UniProt P36915)
phosphopeptide melting temperature shift: 0.265 °C

GNL1 phosphosite_50 (phosphosite position: 50) (UniProt P36915)
phosphopeptide melting temperature shift: 0.265 °C

GNL1 phosphosite_51 (phosphosite position: 51) (UniProt P36915)
phosphopeptide melting temperature shift: -1.35 ± 0.71 °C

GPHN phosphosite_188 (phosphosite position: 188) (UniProt Q9NQX3)
phosphopeptide melting temperature shift: 0.587 ± 2.6 °C

GPHN phosphosite_194 (phosphosite position: 194) (UniProt Q9NQX3)
phosphopeptide melting temperature shift: 0.416 ± 2.8 °C

GPHN phosphosite_305 (phosphosite position: 305) (UniProt Q9NQX3)
phosphopeptide melting temperature shift: 3.39 °C

GPKOW phosphosite_42 (phosphosite position: 42) (UniProt Q92917)
phosphopeptide melting temperature shift: 1.76 °C

GPRASP2 phosphosite_328 (phosphosite position: 328) (UniProt Q96D09)
phosphopeptide melting temperature shift: 2.11 °C

GPRASP2 phosphosite_330 (phosphosite position: 330) (UniProt Q96D09)
phosphopeptide melting temperature shift: 2.11 °C

GSDMD phosphosite_252 (phosphosite position: 252) (UniProt P57764)
phosphopeptide melting temperature shift: 0.921 ± 0.44 °C

GTF2F1 phosphosite_218 (phosphosite position: 218) (UniProt P35269)
phosphopeptide melting temperature shift: 2.74 °C

GTF2F1 phosphosite_221 (phosphosite position: 221) (UniProt P35269)
phosphopeptide melting temperature shift: -1.47 °C

GTF2F1 phosphosite_446 (phosphosite position: 446) (UniProt P35269)
phosphopeptide melting temperature shift: 0.641 °C

GTPBP1 phosphosite_44 (phosphosite position: 44) (UniProt O00178)
phosphopeptide melting temperature shift: -0.457 °C

GTPBP1 phosphosite_47 (phosphosite position: 47) (UniProt O00178)
phosphopeptide melting temperature shift: -0.457 °C
